Results taken from patent US12642851B2 (Barinthus Biotherapeutics North America, Inc., priority 2022, dated 2026).

Columns and labels:
[1] = general procedure: Fmoc solid-phase peptide synthesis; conditions: conjugation step; for crude HPLC purity: AUC at 220 nm
[2] = Fmoc solid-phase peptide synthesis; conditions: whole synthesis, AUC at 220 nm

(a-Mannose-PEG3)4K2K-PEG24-(X-DBCO)-Ahx-2B3W2
crude HPLC purity [1]: 97.5%

(a-Mannose-PEG3)4K2K-PEG24-Ahx-W5
purity (crude or final not stated) [2]: 97.9%

DBCO-Ahx-(Glu)3(Trp)2
final HPLC purity ([1]; HPLC AUC at 220 nm or 254 nm): >95%

DBCO-Ahx-WWE(Torin-1-Piperazine)WW
conjugation yield [1]: 40% yield

DBCO-Ahx-WWE(VZ-PAB-Torin-1)WW
conjugation yield [1]: 33% yield

DBCO-Ahx-WWE(VZ-Torin-1)WW
conjugation yield [1]: 35% yield

DBCO-Ahx-WWEWW
conjugation yield [1]: 46%

DBCO-Ahx-WWK(Everolimus)WW
conjugation yield [1]: 31% yield

DBCO-Ahx-WWK(ZV-Everolimus)WW
conjugation yield [1]: 29% yield

DBCO-Ahx-WWK(ZV-Torin-1-C1)WW
conjugation yield [1]: 21% yield

DBCO-Ahx-WWK(ZV-Torin-1-C3)WW
conjugation yield [1]: 20% yield

DBCO-Ahx-WWWWW
conjugation yield [1]: 71.9% | final HPLC purity ([1]; HPLC AUC at 220 nm or 254 nm): 92.6%

Fmoc-Ahx-WWK(ZV)WW
conjugation yield [1]: 58% yield

OH-PEG24-VZQLQPFPQPELPYPQPQLPYPQPQPFRSPVZK(DBCO)
conjugation yield [1]: 63% yield | final HPLC purity ([1]; 220 nm): 97.8% AUC at 220 nm

TT-PEG12-(N3-DBCO)-Ahx-W5
crude HPLC purity [1]: 83%

TT-PEG24-(N3-DBCO)-Ahx-W5
crude HPLC purity [1]: 84%
